Assay results taken from patent US20100035257A1.
Residue numbers refer to the chain shown, from its start. Names and notes keep the numbering of the source. No constants are given. Whether binding was seen depends on the method and setting. For part of these data: Binding seen in cells or lysates may run through a third protein. Some results given as binding are weak or reduced against the parent protein; the word gives no strength.

The chains behind the UniProt entries cited, without tags or fusion partners. Where a name states a change or a piece, a line headed by the entry shows the natural chain unless it says otherwise.
UniProt Q9H3D4: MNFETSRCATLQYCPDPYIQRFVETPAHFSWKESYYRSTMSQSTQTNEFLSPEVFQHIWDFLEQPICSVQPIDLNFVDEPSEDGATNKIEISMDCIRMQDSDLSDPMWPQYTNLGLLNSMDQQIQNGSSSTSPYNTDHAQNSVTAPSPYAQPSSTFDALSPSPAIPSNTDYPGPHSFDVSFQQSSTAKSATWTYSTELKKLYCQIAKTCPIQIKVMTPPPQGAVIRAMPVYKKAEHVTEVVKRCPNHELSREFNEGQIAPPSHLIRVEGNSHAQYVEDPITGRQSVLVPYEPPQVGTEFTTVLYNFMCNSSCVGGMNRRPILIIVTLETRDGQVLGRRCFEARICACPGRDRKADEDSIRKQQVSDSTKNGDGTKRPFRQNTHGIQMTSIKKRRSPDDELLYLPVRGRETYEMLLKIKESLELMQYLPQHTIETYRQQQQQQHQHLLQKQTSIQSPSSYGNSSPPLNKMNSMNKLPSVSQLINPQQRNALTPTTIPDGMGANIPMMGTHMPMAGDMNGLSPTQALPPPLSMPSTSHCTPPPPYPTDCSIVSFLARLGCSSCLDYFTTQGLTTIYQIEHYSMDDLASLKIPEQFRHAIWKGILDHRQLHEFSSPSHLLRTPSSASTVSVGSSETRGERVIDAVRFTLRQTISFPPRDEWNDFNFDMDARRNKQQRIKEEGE

Columns and labels:
ΔNp63α (human) [1] = target: T1, ΔNp63α (human) (UniProt Q9H3D4); experiment: IP for p63 or p73 with immunoblot, with or without imatinib and cisplatin
T1 sequence: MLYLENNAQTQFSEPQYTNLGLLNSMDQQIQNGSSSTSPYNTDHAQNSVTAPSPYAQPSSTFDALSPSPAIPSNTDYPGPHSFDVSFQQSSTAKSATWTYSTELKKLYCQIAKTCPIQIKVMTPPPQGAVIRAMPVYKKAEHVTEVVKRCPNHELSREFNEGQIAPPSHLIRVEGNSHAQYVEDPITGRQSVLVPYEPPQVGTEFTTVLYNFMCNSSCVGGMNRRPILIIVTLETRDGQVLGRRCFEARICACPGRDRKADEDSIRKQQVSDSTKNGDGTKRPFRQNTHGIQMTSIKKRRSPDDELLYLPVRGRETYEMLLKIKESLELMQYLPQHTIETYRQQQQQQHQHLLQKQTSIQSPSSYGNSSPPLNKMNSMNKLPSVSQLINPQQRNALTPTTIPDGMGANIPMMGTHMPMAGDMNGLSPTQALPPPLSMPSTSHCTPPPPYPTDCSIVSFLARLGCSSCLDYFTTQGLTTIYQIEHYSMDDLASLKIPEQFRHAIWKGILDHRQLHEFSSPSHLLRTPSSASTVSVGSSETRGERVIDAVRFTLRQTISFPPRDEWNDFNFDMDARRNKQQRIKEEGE

ΔNp63α (human) [2] = target: T1, ΔNp63α (human); experiment: co-immunoprecipitation of endogenous proteins and immunodepletion, HCC-1937 and MDA-MB-468 lysates
ΔNp63α (human) [3] = target: T1, ΔNp63α (human); experiment: IP for p63 with immunoblot, cisplatin-treated cultures (IC70 for 6 hours), HCC-1937 and MDA-MB-468
ΔNp63α (human) [4] = target: T1, ΔNp63α (human); experiment: co-IP and post-IP supernatants, cisplatin-treated against untreated cells
ΔNp63α (human) [5] = target: T1, ΔNp63α (human); experiment: co-immunoprecipitation of endogenous proteins and immunodepletion, HCC-1937 and T47D lysates
ΔNp63α (human) [6] = target: T1, ΔNp63α (human); experiment: co-IP after imatinib pretreatment and cisplatin
ΔNp63α (human) [7] = target: T1, ΔNp63α (human); experiment: IP for p63 or p73 with immunoblot of IP product and post-IP supernatant; HCC-1937 (11A), with similar quantitative binding in MDA-MB-468 (11B)
ΔNp63α (human) [8] = target: T1, ΔNp63α (human); experiment: co-IP after STI-571 pretreatment and cisplatin
ΔNp63α (human) [9] = target: T1, ΔNp63α (human); experiment: co-IP after cisplatin treatment (data not shown)

Measured: binding

B1: TAp73 (endogenous) (protein)
chain: MAQSTATSPDGGTTFEHLWSSLEPDSTYFDLPQSSRGNNEVVGGTDSSMDVFHLEGMTTSVMAQFNLLSSTMDQMSSRAASASPYTPEHAASVPTHSPYAQPSSTFDTMSPAPVIPSNTDYPGPHHFEVTFQQSSTAKSATWTYSPLLKKLYCQIAKTCPIQIKVSTPPPPGTAIRAMPVYKKAEHVTDVVKRCPNHELGRDFNEGQSAPASHLIRVEGNNLSQYVDDPVTGRQSVVVPYEPPQVGTEFTTILYNFMCNSSCVGGMNRRPILIIITLEMRDGQVLGRRSFEGRICACPGRDRKADEDHYREQQALNESSAKNGAASKRAFKQSPPAVPALGAGVKKRRHGDEDTYYLQVRGRENFEILMKLKESLELMELVPQPLVDSYRQQQQLLQRPSHLQPPSYGPVLSPMNKVHGGMNKLPSVNQLVGQPPPHSSAATPNLGPVGPGMLNNHGHAVPANGEMSSSHSAQSMVSGSHCTPPPPYHADPSLVSFLTGLGCPNCIEYFTSQGLQSIYHLQNLTIEDLGALKIPEQYRMTIWRGLQDLKQGHDYSTAQQLLRSSNAATISIGGSGELQRQRVMEAVHFRVRHTITIPNRGGPGGGPDEWADFGFDLPDCKARKQPIKEEFTEAEIH
not listed: ΔNp63α (human) [9]
binds: all other assays above

B2: Y121F TAp73 (protein)
chain: B1 chain with Y121F
binds: ΔNp63α (human) [9]
